Assay results taken from paper PMC12160861.
No constants are given. Whether binding was seen depends on the method and setting. Binding seen in cells or lysates may run through a third protein. Some binding calls cover weakened binding; strength is not graded here.

Protein sequences, listed by entry. Tags and fused reporters are not part of them.
UniProt O95409: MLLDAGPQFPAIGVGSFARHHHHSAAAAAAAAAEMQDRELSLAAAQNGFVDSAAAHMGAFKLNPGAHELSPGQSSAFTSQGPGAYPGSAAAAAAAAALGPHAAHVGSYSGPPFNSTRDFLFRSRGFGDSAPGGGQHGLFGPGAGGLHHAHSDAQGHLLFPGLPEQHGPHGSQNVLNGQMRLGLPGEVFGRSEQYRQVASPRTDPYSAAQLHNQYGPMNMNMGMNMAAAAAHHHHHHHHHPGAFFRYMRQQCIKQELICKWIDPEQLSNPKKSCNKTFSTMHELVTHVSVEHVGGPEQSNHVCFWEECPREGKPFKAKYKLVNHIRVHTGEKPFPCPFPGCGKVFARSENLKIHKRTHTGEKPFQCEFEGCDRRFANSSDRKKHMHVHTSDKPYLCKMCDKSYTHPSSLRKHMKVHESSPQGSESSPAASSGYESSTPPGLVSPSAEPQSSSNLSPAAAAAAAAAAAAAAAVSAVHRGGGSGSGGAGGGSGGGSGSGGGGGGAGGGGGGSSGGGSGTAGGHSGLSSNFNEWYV
UniProt Q14872: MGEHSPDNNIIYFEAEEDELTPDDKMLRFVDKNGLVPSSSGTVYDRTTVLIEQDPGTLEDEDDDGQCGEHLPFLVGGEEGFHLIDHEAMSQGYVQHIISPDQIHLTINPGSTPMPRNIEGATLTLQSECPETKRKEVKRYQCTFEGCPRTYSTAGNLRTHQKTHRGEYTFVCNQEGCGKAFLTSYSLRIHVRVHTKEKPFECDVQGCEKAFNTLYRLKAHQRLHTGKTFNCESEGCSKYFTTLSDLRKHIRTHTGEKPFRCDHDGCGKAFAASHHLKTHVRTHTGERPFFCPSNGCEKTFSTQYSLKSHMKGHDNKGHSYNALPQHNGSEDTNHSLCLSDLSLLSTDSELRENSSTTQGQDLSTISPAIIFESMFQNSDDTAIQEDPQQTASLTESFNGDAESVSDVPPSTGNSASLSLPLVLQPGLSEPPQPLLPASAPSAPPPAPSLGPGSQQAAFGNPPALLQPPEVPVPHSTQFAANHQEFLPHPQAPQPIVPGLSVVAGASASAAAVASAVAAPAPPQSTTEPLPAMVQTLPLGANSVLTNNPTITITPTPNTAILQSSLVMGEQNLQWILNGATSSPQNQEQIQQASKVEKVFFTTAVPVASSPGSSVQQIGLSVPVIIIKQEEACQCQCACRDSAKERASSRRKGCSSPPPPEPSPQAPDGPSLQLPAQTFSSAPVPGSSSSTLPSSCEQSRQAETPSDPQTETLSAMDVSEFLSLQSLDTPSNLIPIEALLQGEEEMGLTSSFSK

Biological target: Cerebellar zinc finger 2 (ZIC2) (human (endogenous in CTBPH1)) (UniProt O95409)
Assay: co-IP; total cell lysates (RIPA buffer with protease inhibitors) incubated with anti-ZIC2 antibody or IgG control overnight at 4 °C, protein A/G agarose; immunoblot with anti-MTF1; BPH1 and CTBPH1 cells

In the case of “Metal-responsive transcription factor-1 (MTF1) (from UniProt Q14872 1-753)”, the binding is reported as “binds”.
